{
  "source": "patent US7348421B1",
  "about": "“Methods for production of p-hydroxybenzoate in bacteria” (North Carolina State University, priority 2000, dated 2008)",
  "note": "Some entries share one result that the patent states for a list of compounds.",
  "data": [
    {"system": "Pseudomonas putida DOT-T1E", "assay": "Tolerance to organic solvents in liquid LB medium", "format": "cell-based", "details": "wild-type, solvent 0.3% (vol/vol), 24 h", "values": [
      {"smiles": "CCCCCCCCO", "note": "[1-octanol]", "turbidity of the culture at 660 nm": "above 1.5 units"},
      {"smiles": "C1CCCCC1", "note": "[cyclohexane]", "turbidity of the culture at 660 nm": "above 1.5 units"},
      {"smiles": "CCCCCCC", "note": "[heptane]", "turbidity of the culture at 660 nm": "above 1.5 units"},
      {"smiles": "CCCc1ccccc1", "note": "[propylbenzene]", "turbidity of the culture at 660 nm": "above 1.5 units"}
    ]}
  ]
}
